Results taken from the supplement of paper PMC11732987, “Enantioselective OTUD7B fragment discovery through chemoproteomics screening and high-throughput optimisation” (Communications Chemistry, 2025).
The other results are listed elsewhere or left out. The data scatter; read single values as rough.

Chains of the proteins cited; added tags and fusions are not shown. Lines headed by an entry give the natural chain unless they say otherwise; changes in a name come on top. Residues count along the entry.
UniProt O15014: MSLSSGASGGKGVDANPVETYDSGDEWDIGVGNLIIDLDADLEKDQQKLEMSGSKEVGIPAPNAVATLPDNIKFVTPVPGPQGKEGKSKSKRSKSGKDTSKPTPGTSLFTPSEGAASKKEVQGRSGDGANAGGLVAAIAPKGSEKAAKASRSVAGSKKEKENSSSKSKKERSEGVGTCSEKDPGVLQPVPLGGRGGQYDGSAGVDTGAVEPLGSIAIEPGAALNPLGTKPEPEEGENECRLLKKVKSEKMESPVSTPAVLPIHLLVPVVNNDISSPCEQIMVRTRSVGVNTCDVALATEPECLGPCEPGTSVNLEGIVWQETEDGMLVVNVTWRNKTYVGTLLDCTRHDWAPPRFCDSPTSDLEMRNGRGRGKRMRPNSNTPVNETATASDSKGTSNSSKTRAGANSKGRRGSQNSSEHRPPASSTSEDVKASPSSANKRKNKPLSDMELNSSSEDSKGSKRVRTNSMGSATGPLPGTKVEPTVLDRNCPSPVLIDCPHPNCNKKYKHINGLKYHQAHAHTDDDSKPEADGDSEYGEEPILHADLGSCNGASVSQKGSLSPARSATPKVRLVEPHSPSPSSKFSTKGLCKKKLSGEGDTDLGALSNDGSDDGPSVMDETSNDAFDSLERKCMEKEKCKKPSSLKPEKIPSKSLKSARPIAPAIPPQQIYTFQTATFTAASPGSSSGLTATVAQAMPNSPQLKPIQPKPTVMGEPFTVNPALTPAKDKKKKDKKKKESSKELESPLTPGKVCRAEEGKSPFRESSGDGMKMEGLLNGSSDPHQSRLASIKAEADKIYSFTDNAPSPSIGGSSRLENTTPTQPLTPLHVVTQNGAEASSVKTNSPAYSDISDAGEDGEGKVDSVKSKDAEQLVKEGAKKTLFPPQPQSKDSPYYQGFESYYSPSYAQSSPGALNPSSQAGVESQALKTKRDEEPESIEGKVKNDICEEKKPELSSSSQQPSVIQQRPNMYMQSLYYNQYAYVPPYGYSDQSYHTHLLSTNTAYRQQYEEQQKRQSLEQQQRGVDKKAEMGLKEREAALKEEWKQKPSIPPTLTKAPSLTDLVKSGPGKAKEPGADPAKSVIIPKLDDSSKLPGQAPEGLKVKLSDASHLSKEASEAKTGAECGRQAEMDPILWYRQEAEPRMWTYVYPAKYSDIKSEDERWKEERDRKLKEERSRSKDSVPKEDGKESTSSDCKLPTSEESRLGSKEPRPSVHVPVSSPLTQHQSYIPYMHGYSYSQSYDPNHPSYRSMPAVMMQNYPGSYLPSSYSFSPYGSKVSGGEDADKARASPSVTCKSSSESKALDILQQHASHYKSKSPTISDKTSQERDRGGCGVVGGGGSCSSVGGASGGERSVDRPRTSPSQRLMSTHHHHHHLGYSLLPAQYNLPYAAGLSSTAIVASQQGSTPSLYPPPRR
UniProt Q6NZY4, 590-609: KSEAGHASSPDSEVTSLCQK
UniProt Q6V9R5: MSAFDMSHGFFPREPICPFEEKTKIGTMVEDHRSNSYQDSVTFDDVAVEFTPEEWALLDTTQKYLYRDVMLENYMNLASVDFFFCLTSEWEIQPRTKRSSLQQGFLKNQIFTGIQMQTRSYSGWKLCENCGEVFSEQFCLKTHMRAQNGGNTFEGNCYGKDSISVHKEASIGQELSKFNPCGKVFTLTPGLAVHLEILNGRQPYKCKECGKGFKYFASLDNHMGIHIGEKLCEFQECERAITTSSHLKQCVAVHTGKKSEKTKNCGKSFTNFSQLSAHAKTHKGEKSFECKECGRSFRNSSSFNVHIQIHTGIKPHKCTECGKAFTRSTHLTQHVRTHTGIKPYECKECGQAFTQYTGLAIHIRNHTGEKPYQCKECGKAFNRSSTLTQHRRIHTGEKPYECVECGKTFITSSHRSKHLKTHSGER
UniProt Q5SVZ6, 13-37: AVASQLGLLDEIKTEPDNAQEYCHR
UniProt Q9UJN7: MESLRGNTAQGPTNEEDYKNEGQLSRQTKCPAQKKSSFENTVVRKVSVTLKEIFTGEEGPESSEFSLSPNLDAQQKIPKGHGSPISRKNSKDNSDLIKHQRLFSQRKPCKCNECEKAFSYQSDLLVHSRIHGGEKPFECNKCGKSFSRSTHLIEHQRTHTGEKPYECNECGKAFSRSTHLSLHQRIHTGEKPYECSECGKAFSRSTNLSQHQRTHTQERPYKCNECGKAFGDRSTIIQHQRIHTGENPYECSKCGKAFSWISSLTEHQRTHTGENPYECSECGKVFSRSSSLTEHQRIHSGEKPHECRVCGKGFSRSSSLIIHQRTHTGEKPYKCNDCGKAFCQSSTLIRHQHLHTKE
UniProt Q9H609: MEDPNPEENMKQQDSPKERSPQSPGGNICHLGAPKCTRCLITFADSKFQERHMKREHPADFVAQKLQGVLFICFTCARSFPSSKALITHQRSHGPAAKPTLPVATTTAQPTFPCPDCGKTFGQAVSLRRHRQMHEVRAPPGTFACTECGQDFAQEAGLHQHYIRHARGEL
UniProt Q9UBW7: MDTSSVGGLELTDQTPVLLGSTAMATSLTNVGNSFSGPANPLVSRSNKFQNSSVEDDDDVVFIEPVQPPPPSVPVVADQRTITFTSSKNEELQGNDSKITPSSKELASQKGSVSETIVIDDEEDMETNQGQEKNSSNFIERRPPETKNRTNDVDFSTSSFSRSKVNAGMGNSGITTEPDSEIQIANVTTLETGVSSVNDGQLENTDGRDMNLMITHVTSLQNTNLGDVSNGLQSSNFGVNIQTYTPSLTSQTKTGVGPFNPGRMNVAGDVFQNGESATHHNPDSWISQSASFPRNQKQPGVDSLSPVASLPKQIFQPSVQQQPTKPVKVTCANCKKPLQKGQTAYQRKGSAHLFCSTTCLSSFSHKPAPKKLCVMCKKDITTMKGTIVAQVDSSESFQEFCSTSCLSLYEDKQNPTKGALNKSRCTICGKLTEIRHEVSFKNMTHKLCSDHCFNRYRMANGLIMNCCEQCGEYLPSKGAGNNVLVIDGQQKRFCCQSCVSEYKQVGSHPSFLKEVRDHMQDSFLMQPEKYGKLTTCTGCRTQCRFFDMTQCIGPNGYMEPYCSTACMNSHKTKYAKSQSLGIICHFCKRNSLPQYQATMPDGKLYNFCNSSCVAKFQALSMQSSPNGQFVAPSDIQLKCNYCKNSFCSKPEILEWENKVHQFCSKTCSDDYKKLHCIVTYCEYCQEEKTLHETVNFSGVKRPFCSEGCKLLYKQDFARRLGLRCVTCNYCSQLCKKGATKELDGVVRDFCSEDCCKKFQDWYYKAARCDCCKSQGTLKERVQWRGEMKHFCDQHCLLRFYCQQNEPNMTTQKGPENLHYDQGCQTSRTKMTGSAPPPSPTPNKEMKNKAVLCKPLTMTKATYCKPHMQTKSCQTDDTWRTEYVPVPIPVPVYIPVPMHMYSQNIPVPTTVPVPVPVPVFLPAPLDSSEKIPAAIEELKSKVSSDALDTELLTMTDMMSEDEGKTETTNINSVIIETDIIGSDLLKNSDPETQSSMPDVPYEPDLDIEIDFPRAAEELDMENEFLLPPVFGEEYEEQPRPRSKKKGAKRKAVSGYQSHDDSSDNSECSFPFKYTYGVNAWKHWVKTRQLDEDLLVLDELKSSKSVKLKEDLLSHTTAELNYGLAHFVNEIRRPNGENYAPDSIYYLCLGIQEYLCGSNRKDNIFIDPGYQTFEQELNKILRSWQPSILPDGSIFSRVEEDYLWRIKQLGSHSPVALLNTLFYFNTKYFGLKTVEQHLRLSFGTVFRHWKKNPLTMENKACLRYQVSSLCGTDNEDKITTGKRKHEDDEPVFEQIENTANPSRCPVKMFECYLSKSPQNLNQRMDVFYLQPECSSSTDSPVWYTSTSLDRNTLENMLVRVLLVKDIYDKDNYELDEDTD
UniProt Q9H8U3: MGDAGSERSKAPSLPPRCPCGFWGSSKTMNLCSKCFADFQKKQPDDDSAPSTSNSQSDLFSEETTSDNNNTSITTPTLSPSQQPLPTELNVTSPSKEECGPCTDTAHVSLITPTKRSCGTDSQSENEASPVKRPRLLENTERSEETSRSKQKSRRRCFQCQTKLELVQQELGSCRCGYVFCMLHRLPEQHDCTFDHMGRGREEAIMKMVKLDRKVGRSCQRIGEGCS
UniProt Q9H582, 193-213: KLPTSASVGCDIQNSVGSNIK
UniProt Q7Z3T8: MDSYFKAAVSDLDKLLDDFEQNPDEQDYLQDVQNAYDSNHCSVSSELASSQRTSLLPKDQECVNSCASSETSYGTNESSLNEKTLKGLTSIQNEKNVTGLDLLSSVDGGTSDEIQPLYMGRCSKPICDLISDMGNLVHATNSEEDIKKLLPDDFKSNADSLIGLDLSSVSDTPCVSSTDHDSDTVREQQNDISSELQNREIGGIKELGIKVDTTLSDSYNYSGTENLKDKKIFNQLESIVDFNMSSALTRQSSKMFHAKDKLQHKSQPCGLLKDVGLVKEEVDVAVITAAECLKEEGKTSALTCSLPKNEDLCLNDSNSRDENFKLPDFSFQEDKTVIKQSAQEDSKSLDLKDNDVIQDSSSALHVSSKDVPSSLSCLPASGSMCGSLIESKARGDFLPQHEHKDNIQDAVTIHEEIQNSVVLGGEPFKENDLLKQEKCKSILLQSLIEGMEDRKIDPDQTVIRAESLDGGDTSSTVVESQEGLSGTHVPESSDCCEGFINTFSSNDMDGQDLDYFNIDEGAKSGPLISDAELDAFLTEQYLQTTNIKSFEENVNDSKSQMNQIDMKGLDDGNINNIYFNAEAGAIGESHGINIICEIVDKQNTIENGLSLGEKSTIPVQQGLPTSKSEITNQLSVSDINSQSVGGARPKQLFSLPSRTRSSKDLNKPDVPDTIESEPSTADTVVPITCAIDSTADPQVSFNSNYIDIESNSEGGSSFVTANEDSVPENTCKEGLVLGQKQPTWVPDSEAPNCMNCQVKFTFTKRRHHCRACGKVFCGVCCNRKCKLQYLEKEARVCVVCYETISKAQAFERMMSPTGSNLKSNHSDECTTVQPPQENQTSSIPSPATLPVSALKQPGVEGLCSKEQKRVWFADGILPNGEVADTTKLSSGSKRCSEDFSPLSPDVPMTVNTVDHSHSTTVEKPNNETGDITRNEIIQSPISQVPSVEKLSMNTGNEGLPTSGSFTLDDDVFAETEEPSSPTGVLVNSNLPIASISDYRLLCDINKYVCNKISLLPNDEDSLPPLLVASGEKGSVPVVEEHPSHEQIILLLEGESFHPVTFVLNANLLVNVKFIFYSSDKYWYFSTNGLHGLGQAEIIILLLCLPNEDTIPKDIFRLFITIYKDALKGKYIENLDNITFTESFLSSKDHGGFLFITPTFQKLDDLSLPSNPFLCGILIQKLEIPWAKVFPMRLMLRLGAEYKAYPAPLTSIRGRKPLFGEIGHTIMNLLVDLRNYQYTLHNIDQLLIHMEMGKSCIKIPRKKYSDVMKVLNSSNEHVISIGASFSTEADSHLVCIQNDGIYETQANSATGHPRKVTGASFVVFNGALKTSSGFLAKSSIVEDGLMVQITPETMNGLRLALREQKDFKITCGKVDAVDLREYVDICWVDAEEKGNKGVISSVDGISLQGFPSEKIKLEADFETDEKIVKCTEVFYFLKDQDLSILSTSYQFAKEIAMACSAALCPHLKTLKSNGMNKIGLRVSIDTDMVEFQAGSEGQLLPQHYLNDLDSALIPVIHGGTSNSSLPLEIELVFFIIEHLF
UniProt O75362, 416-463: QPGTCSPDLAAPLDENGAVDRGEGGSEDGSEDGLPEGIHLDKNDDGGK
UniProt P17098: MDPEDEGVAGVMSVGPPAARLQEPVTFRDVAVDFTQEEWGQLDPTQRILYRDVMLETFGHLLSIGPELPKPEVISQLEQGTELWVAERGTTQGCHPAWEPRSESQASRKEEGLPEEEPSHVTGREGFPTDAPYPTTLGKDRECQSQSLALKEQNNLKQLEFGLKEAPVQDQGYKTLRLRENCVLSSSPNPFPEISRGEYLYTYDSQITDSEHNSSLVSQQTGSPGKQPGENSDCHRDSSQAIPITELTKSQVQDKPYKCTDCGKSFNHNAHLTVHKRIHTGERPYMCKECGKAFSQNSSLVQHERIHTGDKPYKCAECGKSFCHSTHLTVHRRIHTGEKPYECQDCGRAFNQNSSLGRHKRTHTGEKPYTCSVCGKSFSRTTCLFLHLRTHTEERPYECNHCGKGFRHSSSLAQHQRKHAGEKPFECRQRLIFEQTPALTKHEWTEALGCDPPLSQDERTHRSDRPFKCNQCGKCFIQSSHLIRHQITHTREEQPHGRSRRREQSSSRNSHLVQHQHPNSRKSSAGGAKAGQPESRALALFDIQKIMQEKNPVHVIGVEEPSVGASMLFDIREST
UniProt Q9UHR6: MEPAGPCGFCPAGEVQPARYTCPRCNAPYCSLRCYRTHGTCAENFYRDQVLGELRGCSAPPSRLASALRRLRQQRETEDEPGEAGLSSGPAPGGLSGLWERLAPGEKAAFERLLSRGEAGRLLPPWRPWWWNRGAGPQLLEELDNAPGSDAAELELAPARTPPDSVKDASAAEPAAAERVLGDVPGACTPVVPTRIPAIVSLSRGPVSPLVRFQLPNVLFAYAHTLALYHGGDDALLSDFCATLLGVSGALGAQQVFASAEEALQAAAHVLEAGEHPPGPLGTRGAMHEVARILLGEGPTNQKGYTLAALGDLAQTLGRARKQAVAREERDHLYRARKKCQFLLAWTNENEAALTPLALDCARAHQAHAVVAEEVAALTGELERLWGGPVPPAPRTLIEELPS

Tests used:
[1] = compound: ClCC(=O)N[C@@H]1CCCc2ccccc12; experiment: log2 mean competition ratio of IA-DTB cysteine labelling (DMSO/compound) (log2 ratio); higher = stronger cysteine engagement by compound; conditions: treatment time: 4 h, cell line lysate: HEK293T
Procedure: (§1)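 IA-DTB competitive cysteine chemoproteomics in HEK293T RIPA lysate. Lysates were treated with compound 29 or 30 at 50 or 200 µM for 4 h, then IA-DTB (500 µM, 1 h), trypsin-digested, NeutrAvidin-enriched and analysed by diaPASEF. Competition ratio = intensity DMSO / intensity compound (n=4 treated, n=64 DMSO); binding: mean log2 CR ≥ 1 and p ≤ 0.05 plus QC filters. Target is the cysteine site.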

[2] = compound: ClCC(=O)N[C@H]1CCCc2ccccc12; experiment: as above; conditions: treatment time: 4 h, cell line lysate: HEK293T
Procedure: as §1

Target	log2 mean competition ratio ([1]; 50 µM)	log2 mean competition ratio ([1]; 200 µM)	log2 mean competition ratio ([2]; 50 µM)	log2 mean competition ratio ([2]; 200 µM)
ZNF592 C463 (UniProt Q92610)	-0.0603	-0.0041	–	–
ZNF609 C944 (UniProt O15014)	-0.172	0.126	–	–
ZCCHC8 C607 (UniProt Q6NZY4)	-0.0675	0.00752	–	–
ZNF516 C165 (UniProt Q92618)	0.215	0.151	–	–
ZNF562 C17 (UniProt Q6V9R5)	-0.0882	-0.411	–	–
ZNF668 C241 (UniProt Q96K58)	0.0764	-0.16	–	–
ZMYM1 C159 (UniProt Q5SVZ6)	-0.033	0.00115	–	–
ZNF391 C343 (UniProt Q9UJN7)	–	0.664	–	–
ZEB1 C82 (UniProt P37275)	0.0948	0.331	–	–
ZNF106 C544 (UniProt Q9H2Y7)	-0.142	0.158	–	–
ZFHX4 C2319 (UniProt Q86UP3)	0.646	0.162	–	–
ZHX2 C738 (UniProt Q9Y6X8)	0.117	0.567	–	–
ZNF518A C813	0.061	-0.0255	–	–
ZNF747 C108	-0.311	0.0581	–	–
ZNF654 C45, A0A1B0GWA0	0.14	0.0809	–	–
ZSCAN25 C144 (UniProt Q6NSZ9)	-0.323	–	–	–
ZNF576 C29 (UniProt Q9H609)	0.28	0.23	–	–
ZMYM2 C1268 (UniProt Q9UBW7)	0.0601	0.489	–	–
ZMYM1 C35 (UniProt Q5SVZ6)	-0.204	0.623	–	–
ZNF428 C111	-0.103	-0.0217	–	–
ZMYM3 C1048 (UniProt Q14202)	0.00215	0.0269	–	–
ZNF131 C9 (UniProt P52739)	0.319	0.318	–	–
ZNF512B C129 (UniProt Q96KM6)	-0.245	-0.0977	–	–
ZNHIT6 C211 (UniProt Q9NWK9)	0.0113	-0.06	–	–
ZFAND3 C32 (UniProt Q9H8U3)	-0.00212	-0.426	–	–

Target	log2 mean competition ratio ([1]; 50 µM)	log2 mean competition ratio ([1]; 200 µM)	log2 mean competition ratio ([2]; 50 µM)	log2 mean competition ratio ([2]; 200 µM)
ZFP91 C182 (UniProt Q96JP5)	0.0157	0.169	–	–
ZSCAN30 C171	-0.105	0.0191	–	–
ZFPM2 C788 (UniProt Q8WW38)	-0.156	–	–	–
ZRSR2P1;ZRSR2 C177;(C172)	-0.142	-0.00379	–	–
ZMYM6 C454	0.277	0.309	–	–
ZDHHC4 C337 (UniProt Q9NPG8)	0.264	0.208	–	–
ZNF644 C202 (UniProt Q9H582)	0.369	0.586	–	–
ZC3HC1 C149 (UniProt Q86WB0)	0.299	-0.297	–	–
ZNF318 C140 (UniProt Q5VUA4)	-0.0326	0.129	–	–
ZNF609 C345 (UniProt O15014)	-0.000783	0.0799	–	–
ZDHHC18 C375 (UniProt Q9NUE0)	-0.254	0.298	–	–
ZDHHC13 C51 (UniProt Q8IUH4)	-0.139	0.144	–	–
ZNHIT3 C42 (UniProt Q15649)	0.0497	-0.464	–	–
ZC3H7B C576 (UniProt Q9UGR2)	0.116	-0.121	–	–
ZFYVE16 C1002 (UniProt Q7Z3T8)	-0.113	0.061	–	–
ZNF142 C1049	0.125	0.287	–	–
ZC3HC1 C156 (UniProt Q86WB0)	0.0282	-0.235	–	–
ZMYM4 C711 (UniProt Q5VZL5)	0.328	0.0841	–	–
ZZZ3 C104 (UniProt Q8IYH5)	-0.33	0.29	–	–
ZNF823 C343	0.26	0.132	-0.059	–
ZNF14 C80	0.045	-0.127	–	–
ZNF324 C198 (UniProt O75467)	-0.318	0.165	–	–
ZNF217 C420 (UniProt O75362)	-0.548	-0.396	–	–
ZMYM1 C438 (UniProt Q5SVZ6)	0.127	0.0437	–	–
ZNF263 C284	0.0937	0.175	0.0742	–

A second format for part of the listing above:
Target,log2 mean competition ratio ([1]; 50 µM),log2 mean competition ratio ([1]; 200 µM),log2 mean competition ratio ([2]; 50 µM),log2 mean competition ratio ([2]; 200 µM)
ZNF518A C813,0.061,-0.0255,–,–
ZMYM2 C1268 (UniProt Q9UBW7),0.0601,0.489,–,–
ZSCAN30 C171,-0.105,0.0191,–,–
ZDHHC13 C51 (UniProt Q8IUH4),-0.139,0.144,–,–

(listing goes on)

Target	log2 mean competition ratio ([1]; 50 µM)	log2 mean competition ratio ([1]; 200 µM)	log2 mean competition ratio ([2]; 50 µM)	log2 mean competition ratio ([2]; 200 µM)
ZNF644 C1233 (UniProt Q9H582)	0.272	0.319	–	–
ZFYVE9 C1252 (UniProt O95405)	-0.0389	-0.109	–	-0.0908
ZNF205 C197	0.255	-0.236	–	–
ZNFX1 C738 (UniProt Q9P2E3)	-0.181	0.176	–	–
ZSWIM3 C151	-0.0126	0.0189	-0.436	–
ZNF521 C833 (UniProt Q96K83)	0.358	-0.231	–	-0.0769
ZNF326 C360 (UniProt Q5BKZ1)	-0.182	-0.141	0.158	-0.22
ZFYVE16 C313 (UniProt Q7Z3T8)	-0.266	-0.192	–	–
ZNF552 C121 (UniProt Q9H707)	0.139	0.28	–	0.218
ZNF106 C1238 (UniProt Q9H2Y7)	0.417	-0.299	–	0.00736
ZGRF1 C571 (UniProt Q86YA3)	-0.0907	0.0656	0.355	–
ZNF687 C718 (UniProt Q8N1G0)	0.466	0.0566	–	–
ZMYM3 C1197 (UniProt Q14202)	-0.213	0.335	–	–
ZDBF2 C1996	0.00702	0.247	–	–
ZCCHC17 C52 (UniProt Q9NP64)	0.223	0.302	–	–
ZC3H7B C138 (UniProt Q9UGR2)	-0.312	-0.00641	-0.123	0.0081
ZNF8 C94 (UniProt P17098)	-0.204	-0.329	0.485	-0.0659
ZMYM2 C663 (UniProt Q9UBW7)	0.128	-0.148	–	–
ZNF618 C619	-0.461	-0.0521	–	–
ZNF827 C485	-0.123	-0.171	–	–
ZNF709 C431(C571)	0.205	0.497	–	–
ZNF664 C131	0.41	-0.0166	0.251	-0.197
ZNF496 C6	0.175	0.306	–	–
ZNHIT2 C57 (UniProt Q9UHR6)	0.169	-0.0286	0.0927	-0.091
ZNF318 C1860 (UniProt Q5VUA4)	0.224	0.059	0.62	0.36
